Source: patent US20220227887A1 (ONO PHARMACEUTICAL, published 2022)

Tests used:
Experiment in all cases: flow cytometry of DO11.10 cells expressing the mouse/human LAG3 chimera
mLAG-3 hD3 = target: mLAG-3 hD3
mLAG-3 hD4 = target: mLAG-3 hD4
mLAG-3 hD2 = target: mLAG-3 hD2

Measured: binding

B1: anti-mouse LAG3 antibody TKB58 (antibody, V domains shown)
VH: VQLQQSGAELVRPGALVKLSCKASGFNIKDYYMHWVKQRPEQGLEWIGWIDPENGNTIYDPKFQDKASLTADTSSNTAYLQLSSLTSEDTAVYYCAPERGYDYAMDYWGQGTSVTVSS
VL: IVLTQSPATLSVTPGDSVSLSCRASQSISNNLHWYQQKSHESPRLLIKYASQSISGIPSRFSGSGSGTDFTLSINSVETEDFGMYFCQQSNSWPQYTFGGGTKLEIK
notes: Full-form antibody; also called TKB58 antibody; full-form anti-mouse LAG3 antibody
binds: all assays above

Results are given in words; binding and its absence hold for the method and conditions named. Binding can be weak; no strength is given.
